Counter-ions that a name gives are not always drawn. Some of the results follow. Repeats in this data set agree poorly, so a single value says little.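 Wells held roughly 40 S. mansoni schistosomula, imaged in bright field over time against wells given 0.1% DMSO. The paper defines hits as drugs with a Mahalanobis distance of at least 2.47, three standard deviations above the DMSO control mean. Degeneracy is the proportion of worms classified as opaque.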
What follows are molecules tested on Schistosoma mansoni schistosomula (assay: Mahalanobis distance of static-rate-frequency phenotype descriptors from DMSO controls (dimensionless); higher = stronger phenotypic change versus DMSO). Conditions: 10 µM; 72 h.
In the case of CCCCOC(=O)c1ccc(O)cc1 [Butylparaben], the Mahalanobis distance is reported as inactive: 1.73. In the case of CN1[C@@H]2CC[C@H]1C[C@@H](OC(c1ccccc1)c1ccccc1)C2 [Benztropine], the Mahalanobis distance is reported as active: 3.29. In the case of CC#CCC(C)[C@H](O)/C=C/[C@@H]1[C@H]2C/C(=C/CCCC(=O)O)C[C@H]2C[C@H]1O (stereo not given in full) [Iloprost], the Mahalanobis distance is reported as inactive: 1.69. In the case of N=C(N)c1ccc(N=NNc2ccc(C(=N)N)cc2)cc1 [Diminazene Aceturate], the Mahalanobis distance is reported as active: 5.17. CC(=O)OCC(=O)[C@@]12OC3(CCCC3)O[C@@H]1C[C@H]1[C@@H]3CCC4=CC(=O)C=C[C@]4(C)[C@@]3(F)[C@@H](O)C[C@@]12C [Amcinonide] was tested, and the Mahalanobis distance was inactive: 1.49. With C=COCC(F)(F)F [Fluroxene] the Mahalanobis distance was inactive: 1.31. With CC(C)CCC[C@@H](C)[C@H]1CC[C@H]2[C@@H]3CC=C4C[C@@H](O)CC[C@]4(C)[C@H]3CC[C@]12C [Cholesterol] the Mahalanobis distance was inactive: 1.92. Cc1c(O)cccc1C(=O)N[C@@H](CSc1ccccc1)[C@H](O)CN1C[C@H]2CCCC[C@H]2C[C@H]1C(=O)NC(C)(C)C [Nelfinavir] was tested, and the Mahalanobis distance was inactive: 1.97. COc1ccc2nc3cc(Cl)ccc3c(Nc3cc(CN4CCCC4)c(O)c(CN4CCCC4)c3)c2n1 [Pyronaridine Tetraphosphate] was tested, and the Mahalanobis distance was active: 3.13. In the case of Cc1ccc(O)c([C@H](CCN(C(C)C)C(C)C)c2ccccc2)c1 [Tolterodine], the Mahalanobis distance is reported as active: 2.55. NC[C@H]1CC[C@H](C(=O)O)CC1 [Tranexamic Acid] was tested, and the Mahalanobis distance was inactive: 1.82. Oc1c(Cl)cc(Cl)cc1Sc1cc(Cl)cc(Cl)c1O [Bithionol] was tested, and the Mahalanobis distance was inactive: 2.32. For CCCCOc1ccc(CC(=O)NO)cc1 [Bufexamac], the Mahalanobis distance was inactive: 1.69. In the case of O=S(=O)(O)CCSSCCS(=O)(=O)O [Dimesna], the Mahalanobis distance is reported as inactive: 2.15. With Cc1cc(CC(C)CC(C)(C)C)n(O)c(=O)c1 (stereo not given) [Piroctone Olamine] the Mahalanobis distance was inactive: 2.21. Clc1ccccc1C(c1ccccc1)(c1ccccc1)n1ccnc1 [Clotrimazole] was tested, and the Mahalanobis distance was inactive: 2.25. For CO/N=C1\CN(c2nc3c(cc2F)c(=O)c(C(=O)O)cn3C2CC2)CC1CN (stereo not given) [Gemifloxacin Mesylate], the Mahalanobis distance was inactive: 1.75. In the case of CC(=O)[C@H]1CC[C@H]2[C@@H]3CC=C4C[C@@H](OC(=O)CCC(=O)O)CC[C@]4(C)[C@H]3CC[C@]12C [Pregnenolone Succinate], the Mahalanobis distance is reported as active: 2.72. With CCN(CCCc1ccccc1)CCCc1ccccc1 [Alverine Citrate] the Mahalanobis distance was inactive: 1.8. For CC[C@]1(O)C[C@@H]2CN(CCc3c([nH]c4ccccc34)[C@@](C(=O)OC)(c3cc4c(cc3OC)N(C)[C@H]3[C@@](O)(C(=O)OC)[C@H](OC(C)=O)[C@]5(CC)C=CCN6CC[C@]43[C@@H]65)C2)C1 [Vinblastine Sulfate], the Mahalanobis distance was active: 2.92.
